Results deposited as PubChem BioAssay AID1224828 (NIAID, 2016).
Screen: 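Knock-downs that increase or decrease LPS-induced p65 nuclear translocation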 (primary screen). Cells: mouse RAW264.7 G9 macrophage reporter cells (GFP-p65, Tnf promoter-mCherry). Reagent: siRNA pool against mouse genes, 100 nM. Timing: 2 days siRNA transfection, then 40 min LPS before fixation. Conditions: LPS (Salmonella minnesota R595) at 10 ng/ml. Measurement: 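Imaged p65 nuclear translocation ratio, normalised to the plate median, converted to robust z-scores and averaged across two replicates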. Reading the numbers: p65 translocation robust z-score: higher = more nuclear NF-kappaB p65 after LPS than the plate median; nuclear/cytoplasmic p65 ratio: higher = more nuclear NF-kappaB p65. Hit rule: 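Called active when z exceeds 3.3 or falls under -1.56 (median of Tlr4 controls), giving activity score of at least 50; no calls for control wells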. Meaning of the calls: active = hit (p65 shift raised or lowered); inactive = no clear change.
The deposit covers about 17,000 reagents; shown is an unselected part. In the full data, 762 (4.5%) were called active. 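Active calls include both raised and lowered p65 entry, mostly lowered; wells with fewer than 50 cells lack a z-score.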 Raw values vary from plate to plate and are shown uncorrected. Entries without a mark were called inactive. A reagent listed more than once was tested more than once; the source does not tell the runs apart. Reagent sequences are not shown.

Raver2 [SID315479625]
- nuclear/cytoplasmic p65 ratio, rep 1: 1.31
- nuclear/cytoplasmic p65 ratio, rep 2: 1.23
- low cell count flag: fewer than 50 cells per well; well left out of scoring

Or8b48 [SID315480451]
- p65 translocation robust z-score: 0.21
- nuclear/cytoplasmic p65 ratio, rep 1: 1.48
- nuclear/cytoplasmic p65 ratio, rep 2: 1.26
- low cell count flag: enough cells to score

Mapkbp1 [SID315470372]
- p65 translocation robust z-score: -1.51
- nuclear/cytoplasmic p65 ratio, rep 1: 1.53
- nuclear/cytoplasmic p65 ratio, rep 2: 1.28
- low cell count flag: enough cells to score

Actl6a [SID315471550]
- p65 translocation robust z-score: -0.21
- nuclear/cytoplasmic p65 ratio, rep 1: 1.18
- nuclear/cytoplasmic p65 ratio, rep 2: 1.31
- low cell count flag: enough cells to score

Actl6a [SID315471550]
- p65 translocation robust z-score: -0.74
- nuclear/cytoplasmic p65 ratio, rep 1: 1.47
- nuclear/cytoplasmic p65 ratio, rep 2: 1.53
- low cell count flag: enough cells to score

Lyar [SID315467792]
- p65 translocation robust z-score: -1.86 (active)
- nuclear/cytoplasmic p65 ratio, rep 1: 1.54
- nuclear/cytoplasmic p65 ratio, rep 2: 1.18
- low cell count flag: enough cells to score

Akr1b8 [SID315466680]
- p65 translocation robust z-score: 0.37
- nuclear/cytoplasmic p65 ratio, rep 1: 1.69
- nuclear/cytoplasmic p65 ratio, rep 2: 1.65
- low cell count flag: enough cells to score

C1qtnf9 [SID315479421]
- p65 translocation robust z-score: -0.62
- nuclear/cytoplasmic p65 ratio, rep 1: 1.36
- nuclear/cytoplasmic p65 ratio, rep 2: 1.44
- low cell count flag: enough cells to score

Folr1 [SID315466733]
- p65 translocation robust z-score: 1.36
- nuclear/cytoplasmic p65 ratio, rep 1: 1.53
- nuclear/cytoplasmic p65 ratio, rep 2: 1.63
- low cell count flag: enough cells to score

Or13n4 [SID315480253]
- p65 translocation robust z-score: -0.15
- nuclear/cytoplasmic p65 ratio, rep 1: 1.36
- nuclear/cytoplasmic p65 ratio, rep 2: 1.25
- low cell count flag: enough cells to score

Slc61a1 [SID315476528]
- p65 translocation robust z-score: -0.47
- nuclear/cytoplasmic p65 ratio, rep 1: 1.43
- nuclear/cytoplasmic p65 ratio, rep 2: 1.55
- low cell count flag: enough cells to score

Exd1 [SID315479578]
- p65 translocation robust z-score: -1.25
- nuclear/cytoplasmic p65 ratio, rep 1: 1.14
- nuclear/cytoplasmic p65 ratio, rep 2: 1.13
- low cell count flag: enough cells to score

Plekha1 [SID315476277]
- p65 translocation robust z-score: 0.29
- nuclear/cytoplasmic p65 ratio, rep 1: 1.7
- nuclear/cytoplasmic p65 ratio, rep 2: 1.62
- low cell count flag: enough cells to score

Inpp1 [SID315467480]
- p65 translocation robust z-score: 0.32
- nuclear/cytoplasmic p65 ratio, rep 1: 1.49
- nuclear/cytoplasmic p65 ratio, rep 2: 1.45
- low cell count flag: enough cells to score
